Values from PubChem BioAssay AID743454 (Peter MacCallum Cancer Centre, 2014).

- Purpose: 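Knock-downs lowering viability or raising caspase 3/7 activity in vorinostat-treated resistant cells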 (primary screen)
- System: human HCT116-VR colon cancer cells, selected for vorinostat resistance
- Reagent: siRNA pool against human genes, 40 nM siRNA pool
- Time to read-out: vorinostat for 24 h, read-out about 72 h after transfection
- Challenge: vorinostat at 2.5 µM final
- Measurement: 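Cell viability by CellTiter-Fluor and caspase 3/7 activity by luminescence, each scaled to mock wells per plate, duplicates averaged, then robust z-scored over all plates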
- Scale: viability robust z-score: higher = more viable cells than screen typical; caspase robust z-score: higher = more caspase 3/7 activity than screen typical
- Rule for the call: 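a knock-down is a hit when classed RV1 or RV2 for lowered viability, or CA1 or CA2 for caspase activation; those lethal without drug were dropped; hits were retested singly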
Here is a random part of about 18,000 reagents tested. Of all reagents, 450 (2.5%) are marked active. 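Single biological run; no consistent viability z cut-off exists, so the class columns, not z-scores, define the calls.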

target gene	PubChem SID	viability hit class	caspase hit class	viability robust z-score	caspase robust z-score	call
ZNF648 (GeneID 127665)	SID152150983	no change	no change	-0.45	0.68	inactive
LRIT3 (GeneID 345193)	SID134326838	no change	no change	-0.14	-1.07	inactive
DROSHA (GeneID 29102)	SID152153778	no change	no change	-0.17	-1.07	inactive
EHD2 (GeneID 30846)	SID134320641	no change	no change	1.6	0.8	inactive
HIBADH (GeneID 11112)	SID152154916	no change	no change	0.16	2.58	inactive
TBCC (GeneID 6903)	SID152156748	no change	no change	1.06	0.24	inactive
CCNY (GeneID 219771)	SID134322528	no change	no change	-0.3	-0.01	inactive
PIK3C3 (GeneID 5289)	SID134310831	no change	no change	0.36	2.59	inactive
OR5AN1 (GeneID 390195)	SID152155399	no change	no change	-0.24	2.8	inactive
PROKR2 (GeneID 128674)	SID134311034	no change	no change	-0.77	-0.86	inactive
PATE2 (GeneID 399967)	SID134330001	no change	no change	0.18	-0.2	inactive
POP5 (GeneID 51367)	SID134320439	no change	no change	0.08	-0.38	inactive
TAAR5 (GeneID 9038)	SID152153773	no change	no change	-0.55	-0.42	inactive
OR8U3 (GeneID 219479)	SID152155326	no change	no change	-3.8	2.67	inactive
GPR157 (GeneID 80045)	SID135623091	no change	no change	-0.05	0.72	inactive
MUSK (GeneID 4593)	SID56478536	no change	no change	-0.62	1.08	inactive
GPC3 (GeneID 2719)	SID134316184	no change	no change	-0.02	3.96	inactive
BCAM (GeneID 4059)	SID135621971	no change	no change	1.08	-0.41	inactive
ACSS2 (GeneID 55902)	SID134314966	no change	no change	2.09	2.49	inactive
SYNJ2 (GeneID 8871)	SID152149998	no change	no change	-0.18	0.82	inactive
PTCHD4 (GeneID 442213)	SID152148602	no change	no change	0.18	2.19	inactive
STX1B (GeneID 112755)	SID134319202	no change	no change	0.74	0	inactive
CELA3B (GeneID 23436)	SID152154536	no change	no change	0.08	-0.16	inactive
SSR2 (GeneID 6746)	SID152154176	no change	no change	1.03	-0.47	inactive
KHSRP (GeneID 8570)	SID152148306	no change	no change	-1.82	3.86	inactive
GRIN1 (GeneID 2902)	SID152148363	no change	no change	-0.84	-0.36	inactive
GPR119 (GeneID 139760)	SID135621014	no change	no change	-1.32	0.03	inactive
DNAL1 (GeneID 83544)	SID135622806	no change	no change	0.84	1.17	inactive
GAR1 (GeneID 54433)	SID152146853	no change	no change	-1.52	-0.44	inactive
OR2AT4 (GeneID 341152)	SID135625140	no change	no change	0.12	-0.11	inactive
MOB3A (GeneID 126308)	SID134319346	no change	no change	-2.56	5.67	inactive
PPP5C (GeneID 5536)	SID134314024	no change	no change	0.11	-0.02	inactive
STT3B (GeneID 201595)	SID134321767	no change	no change	-0.14	0.9	inactive
OR2A4 (GeneID 79541)	SID134313883	no change	no change	0.58	-0.3	inactive
ACP4 (GeneID 93650)	SID134313243	no change	no change	0.48	0.46	inactive
GFI1 (GeneID 2672)	SID152153211	no change	no change	-0.6	0.58	inactive
LLPH (GeneID 84298)	SID134322462	no change	no change	-1.29	-1.55	inactive
SEC13 (GeneID 6396)	SID152148693	no change	no change	-1.52	0.85	inactive
ZNF766 (GeneID 90321)	SID135624405	no change	no change	-0.66	-0.85	inactive
SOD1 (GeneID 6647)	SID134313241	no change	no change	1.68	3.49	inactive
CFAP418 (GeneID 157657)	SID134321866	no change	no change	1.14	-0.33	inactive
RUNDC3A (GeneID 10900)	SID152147051	no change	no change	0.25	0.01	inactive
RBPMS (GeneID 11030)	SID152150009	no change	no change	0.66	-1	inactive
NLRX1 (GeneID 79671)	SID135622420	no change	no change	-0.06	3.22	inactive
SLA2 (GeneID 84174)	SID135623704	no change	no change	0.75	2.45	inactive
MRPL10 (GeneID 124995)	SID134321331	no change	no change	0.07	-1.14	inactive
MLLT1 (GeneID 4298)	SID152147590	no change	no change	1.14	0.06	inactive
HGF (GeneID 3082)	SID135621230	no change	no change	0.02	0.44	inactive
CLEC4E (GeneID 26253)	SID152152834	no change	no change	0.91	-1.1	inactive
PELI2 (GeneID 57161)	SID152151714	no change	no change	-0.51	2.34	inactive
RAB5IF (GeneID 55969)	SID134324260	no change	no change	-1.73	-0.39	inactive
SUV39H2 (GeneID 79723)	SID134313380	no change	no change	-2.38	2.89	inactive
PPP2R2A (GeneID 5520)	SID134310641	no change	CA1 (caspase activation)	-1.62	6.19	active
PTPN12 (GeneID 5782)	SID152152718	no change	no change	0.76	-0.3	inactive
MDGA1 (GeneID 266727)	SID135623080	no change	no change	-1.35	-0.85	inactive
LRP1B (GeneID 53353)	SID152147996	no change	no change	0.67	-0.92	inactive
DPP4 (GeneID 1803)	SID135620788	no change	no change	-0.9	-0.98	inactive
